These results are taken from article PMC10835888.

Sequences of proteins named here, by UniProt entry; tags and fusion partners are left off.
UniProt Q14137: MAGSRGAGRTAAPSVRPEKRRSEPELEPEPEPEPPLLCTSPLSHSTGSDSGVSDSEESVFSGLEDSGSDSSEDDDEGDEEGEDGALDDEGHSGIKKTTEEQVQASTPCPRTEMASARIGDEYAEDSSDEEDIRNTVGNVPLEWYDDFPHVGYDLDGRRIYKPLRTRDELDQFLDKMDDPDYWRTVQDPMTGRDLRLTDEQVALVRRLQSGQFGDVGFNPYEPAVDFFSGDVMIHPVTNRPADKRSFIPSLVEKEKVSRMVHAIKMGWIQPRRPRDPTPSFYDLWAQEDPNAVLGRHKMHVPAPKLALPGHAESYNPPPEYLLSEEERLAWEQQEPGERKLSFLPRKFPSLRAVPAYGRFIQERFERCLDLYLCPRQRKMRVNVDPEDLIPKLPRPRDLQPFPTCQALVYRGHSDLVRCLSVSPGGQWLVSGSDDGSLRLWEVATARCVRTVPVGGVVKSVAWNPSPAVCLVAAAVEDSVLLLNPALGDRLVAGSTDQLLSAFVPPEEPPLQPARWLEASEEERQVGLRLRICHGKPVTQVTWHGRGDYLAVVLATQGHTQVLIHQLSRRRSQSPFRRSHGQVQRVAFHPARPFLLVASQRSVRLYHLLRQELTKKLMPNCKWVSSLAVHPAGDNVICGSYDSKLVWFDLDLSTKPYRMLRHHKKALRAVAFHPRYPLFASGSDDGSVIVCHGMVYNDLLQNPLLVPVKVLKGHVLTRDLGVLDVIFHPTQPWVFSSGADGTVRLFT

Assay [1] addresses eIF3b (human (endogenous in HepG2, Huh7)), P55884. Put plainly: co-IP; lysates of HepG2 and Huh7 cells in RIPA buffer, pre-cleared; anti-FLAG, anti-HA, anti-eIF3a or anti-eIF3b antibody (normal IgG as control), Protein A/G magnetic beads overnight at 4 °C; washes with 10 mM Tris-HCl pH 7.5, 1 mM EDTA, 150 mM NaCl, 1% Triton-X; Western blotting; which antibody precipitated in which panel is not stated. To be noted: remark: other sources report otherwise. A general note: In western blotting, separated proteins are transferred to a membrane and probed.

Assay [2] deals with T1, eukaryotic translation initiation factor 3 subunit a (eIF3a) (human (endogenous in HepG2, Huh7)), Q14152. The description is as above. To be noted: remark: other sources report otherwise.
In assay [3] the target is eIF3b (human (endogenous in HepG2, Huh7)), P55884. Put plainly: proximity ligation; HepG2 cells, fixed with 4% paraformaldehyde and permeabilised; Duolink; mouse anti-Flag with rabbit anti-eIF3a, or rabbit anti-METTL16 with mouse anti-eIF3b. As to conditions: remark: other sources report otherwise.
Assay [4] has as its target T2, DDX47 with a HA tag at the N terminus (human) (UniProt Q9H0S4).
T2 sequence: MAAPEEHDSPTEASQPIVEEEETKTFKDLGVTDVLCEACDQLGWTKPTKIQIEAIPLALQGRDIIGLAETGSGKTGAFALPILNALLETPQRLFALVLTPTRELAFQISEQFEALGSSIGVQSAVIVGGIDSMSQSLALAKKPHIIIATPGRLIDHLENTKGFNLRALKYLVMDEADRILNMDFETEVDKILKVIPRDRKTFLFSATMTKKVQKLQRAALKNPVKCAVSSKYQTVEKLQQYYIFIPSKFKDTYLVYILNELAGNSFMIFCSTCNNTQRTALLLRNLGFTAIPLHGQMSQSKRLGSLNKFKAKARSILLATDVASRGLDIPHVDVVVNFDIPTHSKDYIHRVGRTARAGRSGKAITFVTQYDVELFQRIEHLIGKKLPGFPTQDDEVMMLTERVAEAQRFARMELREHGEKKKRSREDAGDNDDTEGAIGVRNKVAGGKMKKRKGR
Put plainly: co-IP; lysates of HepG2 and Huh7 cells in RIPA buffer, pre-cleared; anti-FLAG, anti-HA, anti-eIF3a or anti-eIF3b antibody (normal IgG as control), Protein A/G magnetic beads overnight at 4 °C; washes with 10 mM Tris-HCl pH 7.5, 1 mM EDTA, 150 mM NaCl, 1% Triton-X; Western blotting; which antibody precipitated in which panel is not stated.

The target of assay [5] is BOP1 with a HA tag at the N terminus (human) (UniProt Q14137). The assay is described as above.
The target in assay [6] is T3, DDX49 with a HA tag at the N terminus (human) (UniProt Q9Y6V7).
T3 sequence: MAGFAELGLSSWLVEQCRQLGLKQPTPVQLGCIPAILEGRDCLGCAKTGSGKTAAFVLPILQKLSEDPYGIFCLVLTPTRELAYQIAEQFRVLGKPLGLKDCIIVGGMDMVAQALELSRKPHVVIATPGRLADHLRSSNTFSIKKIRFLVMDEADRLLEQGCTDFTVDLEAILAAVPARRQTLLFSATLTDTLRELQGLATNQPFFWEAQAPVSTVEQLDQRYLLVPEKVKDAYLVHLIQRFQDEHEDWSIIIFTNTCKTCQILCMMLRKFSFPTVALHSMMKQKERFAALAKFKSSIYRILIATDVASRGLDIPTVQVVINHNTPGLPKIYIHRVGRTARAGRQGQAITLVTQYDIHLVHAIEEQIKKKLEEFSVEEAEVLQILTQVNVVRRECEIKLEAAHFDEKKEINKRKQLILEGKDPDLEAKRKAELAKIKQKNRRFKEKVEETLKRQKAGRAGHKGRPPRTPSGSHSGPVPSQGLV
The assay is described as above.

For assay [7], the target named is T1, eukaryotic translation initiation …. Put plainly: proximity ligation; HepG2 cells, fixed with 4% paraformaldehyde and permeabilised; Duolink; mouse anti-Flag with rabbit anti-eIF3a, or rabbit anti-METTL16 with mouse anti-eIF3b. As to conditions: remark: other sources report otherwise.

Results are given in words; binding and its absence hold for the method and conditions named. Binding seen in cells or lysates may run through a third protein. Some entries that bind do so weakly or less than the wild type. For some of these results: Tags and fused reporters may be left off the sequences shown.

B1: Methyltransferase 16 (METTL16), Q86W50 1-562 (enzyme)
chain: MALSKSMHARNRYKDKPPDFAYLASKYPDFKQHVQINLNGRVSLNFKDPEAVRALTCTLLREDFGLSIDIPLERLIPTVPLRLNYIHWVEDLIGHQDSDKSTLRRGIDIGTGASCIYPLLGATLNGWYFLATEVDDMCFNYAKKNVEQNNLSDLIKVVKVPQKTLLMDALKEESEIIYDFCMCNPPFFANQLEAKGVNSRNPRRPPPSSVNTGGITEIMAEGGELEFVKRIIHDSLQLKKRLRWYSCMLGKKCSLAPLKEELRIQGVPKVTYTEFCQGRTMRWALAWSFYDDVTVPSPPSKRRKLEKPRKPITFVVLASVMKELSLKASPLRSETAEGIVVVTTWIEKILTDLKVQHKRVPCGKEEVSLFLTAIENSWIHLRRKKRERVRQLREVPRAPEDVIQALEEKKPTPKESGNSQELARGPQERTPCGPALREGEAAAVEGPCPSQESLSQEENPEPTEDERSEEKGGVEVLESCQGSSNGAQDQEASEQFGSPVAERGKRLPGVAGQYLFKCLINVKKEVDDALVEMHWVEGQNRDLMNQLCTYIRNQIFRLVAVN
Take B1: the binding entry in assay [1], in assay [2] and in assay [3] was “binds” in each case.

B2: Methyltransferase 16 (METTL16) (enzyme, UniProt Q86W50 1-562)
chain: MALSKSMHARNRYKDKPPDFAYLASKYPDFKQHVQINLNGRVSLNFKDPEAVRALTCTLLREDFGLSIDIPLERLIPTVPLRLNYIHWVEDLIGHQDSDKSTLRRGIDIGTGASCIYPLLGATLNGWYFLATEVDDMCFNYAKKNVEQNNLSDLIKVVKVPQKTLLMDALKEESEIIYDFCMCNPPFFANQLEAKGVNSRNPRRPPPSSVNTGGITEIMAEGGELEFVKRIIHDSLQLKKRLRWYSCMLGKKCSLAPLKEELRIQGVPKVTYTEFCQGRTMRWALAWSFYDDVTVPSPPSKRRKLEKPRKPITFVVLASVMKELSLKASPLRSETAEGIVVVTTWIEKILTDLKVQHKRVPCGKEEVSLFLTAIENSWIHLRRKKRERVRQLREVPRAPEDVIQALEEKKPTPKESGNSQELARGPQERTPCGPALREGEAAAVEGPCPSQESLSQEENPEPTEDERSEEKGGVEVLESCQGSSNGAQDQEASEQFGSPVAERGKRLPGVAGQYLFKCLINVKKEVDDALVEMHWVEGQNRDLMNQLCTYIRNQIFRLVAVN
B2: the binding result in assay [4], in assay [5] and in assay [6] was “binds” each time.

B3: Flag-tagged METTL16, Q86W50 1-562 (enzyme)
chain: MALSKSMHARNRYKDKPPDFAYLASKYPDFKQHVQINLNGRVSLNFKDPEAVRALTCTLLREDFGLSIDIPLERLIPTVPLRLNYIHWVEDLIGHQDSDKSTLRRGIDIGTGASCIYPLLGATLNGWYFLATEVDDMCFNYAKKNVEQNNLSDLIKVVKVPQKTLLMDALKEESEIIYDFCMCNPPFFANQLEAKGVNSRNPRRPPPSSVNTGGITEIMAEGGELEFVKRIIHDSLQLKKRLRWYSCMLGKKCSLAPLKEELRIQGVPKVTYTEFCQGRTMRWALAWSFYDDVTVPSPPSKRRKLEKPRKPITFVVLASVMKELSLKASPLRSETAEGIVVVTTWIEKILTDLKVQHKRVPCGKEEVSLFLTAIENSWIHLRRKKRERVRQLREVPRAPEDVIQALEEKKPTPKESGNSQELARGPQERTPCGPALREGEAAAVEGPCPSQESLSQEENPEPTEDERSEEKGGVEVLESCQGSSNGAQDQEASEQFGSPVAERGKRLPGVAGQYLFKCLINVKKEVDDALVEMHWVEGQNRDLMNQLCTYIRNQIFRLVAVN
Take B3: the binding result in assay [7] was “binds”.
